# No constants are given. Whether binding was seen depends on the method and setting.
# Columns and labels:
# [1] = target: human 4E-T(1-68) C26AC50A (human) (UniProt Q9NRA8); test: AUC; sedimentation velocity, non-reducing: 50 mM HEPES-KOH, 100 mM KCl pH 7.2, no TCEP, 20 °C, 50,000 rpm; 50 µM WT, C50A, C26AC50A, 38 µM C26A; dimers are held by intermolecular disulphide bonds; both purified
# [2] = target: human 4E-T(1-68) C26AC50A (human) (UniProt Q9NRA8); test: SEC; non-reducing: monomer fractions incubated 24 h at 20 °C in TCEP-free 50 mM HEPES-KOH pH 7.2 with KCl, Enrich SEC70 column, 20 °C; dimers are held by intermolecular disulphide bonds; both purified
# [3] = target: human 4E-T(1-68) C26AC50A (human) (UniProt Q9NRA8); test: SEC; reducing: samples incubated with 2 mM TCEP in 50 mM HEPES-KOH pH 7.2 with KCl, Enrich SEC70 column, 20 °C; both purified
# [4] = target: human 4E-T(1-68) C26AC50A (human) (UniProt Q9NRA8); test: SDS-PAGE without reducing agent; SDS-PAGE in the absence of reducing agent of the h4E-T(1-68) variants incubated without TCEP; shows covalent (disulphide) dimers; both purified
# [5] = target: human 4E-T(1-68) C26A (human) (UniProt Q9NRA8); test: SEC; reducing: samples incubated with 2 mM TCEP in 50 mM HEPES-KOH pH 7.2 with KCl, Enrich SEC70 column, 20 °C; both purified
# [6] = target: human 4E-T(1-68) C26A (human) (UniProt Q9NRA8); test: AUC; sedimentation velocity, reducing: 50 mM HEPES-KOH, 100 mM KCl pH 7.2, 1 mM TCEP, 20 °C, 50,000 rpm; 50 µM WT and C50A, 38 µM C26A; both purified
# [7] = target: human 4E-T(1-68) C50A (human) (UniProt Q9NRA8); test: SEC; reducing: samples incubated with 2 mM TCEP in 50 mM HEPES-KOH pH 7.2 with KCl, Enrich SEC70 column, 20 °C; both purified
binder,measurement,setting,value
"human 4E-T(1-68) C26AC50A (domain or fragment, UniProt Q9NRA8 1-68) MDRRSMGETESGDAFLDLKKPPASKAPHRYTKEELLDIKELPHSKQRPSALSEKYDSDGVWDPEKWHA",binding,[1],no binding (tested: 50 µM)
same,binding,[2],no binding
same,binding,[3],no binding
same,binding,[4],no binding
"human 4E-T(1-68) C26A (domain or fragment, UniProt Q9NRA8 1-68) MDRRSMGETESGDAFLDLKKPPASKAPHRYTKEELLDIKELPHSKQRPSCLSEKYDSDGVWDPEKWHA",binding,[5],no binding (condition: with 2 mM TCEP)
same,binding,[6],no binding (condition: with 1 mM TCEP; 38 µM)
"human 4E-T(1-68) C50A (domain or fragment, UniProt Q9NRA8 1-68, looked up, human 4E-Transporter (4E-T), N-terminal fragment, residues 1-68; Without TCEP the samples are a mixture of monomer and disulphide-linked dimer; also called C50A mutant) MDRRSMGETESGDAFLDLKKPPASKCPHRYTKEELLDIKELPHSKQRPSALSEKYDSDGVWDPEKWHA",binding,[7],no binding (condition: with 2 mM TCEP)

# — PMC10618305, “An intramolecular disulphide bond in human 4E-T affects its binding to eIF4E1a protein” (European Biophysics Journal, 2023)
